## Primary screen of a compound library

Amino acid sequences for entries named in this document (tags omitted). Residues count along the entry.
UniProt P9WPC5, whole entry: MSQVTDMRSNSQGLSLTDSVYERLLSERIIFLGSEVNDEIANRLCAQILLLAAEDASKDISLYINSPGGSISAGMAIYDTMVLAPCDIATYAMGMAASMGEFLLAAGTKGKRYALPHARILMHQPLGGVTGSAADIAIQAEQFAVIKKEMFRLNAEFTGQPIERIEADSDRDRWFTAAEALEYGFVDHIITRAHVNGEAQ
UniProt P9WPC3, whole entry partner: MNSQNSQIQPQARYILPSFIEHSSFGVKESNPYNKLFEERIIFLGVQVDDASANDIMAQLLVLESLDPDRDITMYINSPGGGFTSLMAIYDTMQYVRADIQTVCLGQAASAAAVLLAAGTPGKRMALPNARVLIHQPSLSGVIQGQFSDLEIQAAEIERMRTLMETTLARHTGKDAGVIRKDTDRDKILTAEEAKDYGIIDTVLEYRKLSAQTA
UniProt Q4DA54, 1-478: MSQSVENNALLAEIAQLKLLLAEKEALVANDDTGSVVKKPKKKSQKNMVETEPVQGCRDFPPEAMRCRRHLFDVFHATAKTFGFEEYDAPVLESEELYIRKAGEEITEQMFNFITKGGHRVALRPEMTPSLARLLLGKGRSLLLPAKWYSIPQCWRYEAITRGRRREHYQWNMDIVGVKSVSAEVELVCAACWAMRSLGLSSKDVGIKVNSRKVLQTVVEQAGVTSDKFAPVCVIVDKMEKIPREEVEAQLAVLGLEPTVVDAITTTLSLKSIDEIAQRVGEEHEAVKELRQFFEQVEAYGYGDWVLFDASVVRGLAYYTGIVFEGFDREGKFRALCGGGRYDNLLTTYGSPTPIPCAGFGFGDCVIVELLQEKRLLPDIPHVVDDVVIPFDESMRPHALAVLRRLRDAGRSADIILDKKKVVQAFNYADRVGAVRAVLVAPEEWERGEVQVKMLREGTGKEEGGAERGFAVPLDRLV
UniProt Q8IDJ8, 1-583: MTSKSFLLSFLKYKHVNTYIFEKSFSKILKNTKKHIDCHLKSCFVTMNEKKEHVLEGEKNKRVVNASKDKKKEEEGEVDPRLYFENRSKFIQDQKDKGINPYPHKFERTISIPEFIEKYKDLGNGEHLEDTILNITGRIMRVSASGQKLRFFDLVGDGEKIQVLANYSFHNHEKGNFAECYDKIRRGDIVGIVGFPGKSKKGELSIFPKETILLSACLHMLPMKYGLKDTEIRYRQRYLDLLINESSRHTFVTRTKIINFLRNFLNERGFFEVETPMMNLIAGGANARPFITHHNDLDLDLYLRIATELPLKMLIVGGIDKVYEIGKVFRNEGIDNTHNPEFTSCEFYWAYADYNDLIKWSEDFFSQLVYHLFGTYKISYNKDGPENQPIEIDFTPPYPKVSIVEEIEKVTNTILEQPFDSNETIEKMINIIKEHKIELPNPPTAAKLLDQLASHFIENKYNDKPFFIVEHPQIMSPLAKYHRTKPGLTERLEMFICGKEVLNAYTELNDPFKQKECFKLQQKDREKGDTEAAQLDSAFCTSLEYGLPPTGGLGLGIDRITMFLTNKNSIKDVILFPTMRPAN
UniProt P9WNZ1, whole entry: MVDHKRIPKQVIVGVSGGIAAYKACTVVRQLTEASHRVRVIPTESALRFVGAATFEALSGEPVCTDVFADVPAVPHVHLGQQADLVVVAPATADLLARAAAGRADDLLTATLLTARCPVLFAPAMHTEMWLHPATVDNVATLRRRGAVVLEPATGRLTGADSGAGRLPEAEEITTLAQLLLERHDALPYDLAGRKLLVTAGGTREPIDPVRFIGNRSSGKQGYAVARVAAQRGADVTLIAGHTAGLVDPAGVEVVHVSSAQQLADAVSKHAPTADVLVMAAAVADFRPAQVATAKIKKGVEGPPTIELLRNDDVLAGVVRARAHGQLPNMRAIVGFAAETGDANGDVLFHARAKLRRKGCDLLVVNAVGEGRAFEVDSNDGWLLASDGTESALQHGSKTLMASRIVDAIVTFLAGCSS
UniProt I6X8D2, whole entry: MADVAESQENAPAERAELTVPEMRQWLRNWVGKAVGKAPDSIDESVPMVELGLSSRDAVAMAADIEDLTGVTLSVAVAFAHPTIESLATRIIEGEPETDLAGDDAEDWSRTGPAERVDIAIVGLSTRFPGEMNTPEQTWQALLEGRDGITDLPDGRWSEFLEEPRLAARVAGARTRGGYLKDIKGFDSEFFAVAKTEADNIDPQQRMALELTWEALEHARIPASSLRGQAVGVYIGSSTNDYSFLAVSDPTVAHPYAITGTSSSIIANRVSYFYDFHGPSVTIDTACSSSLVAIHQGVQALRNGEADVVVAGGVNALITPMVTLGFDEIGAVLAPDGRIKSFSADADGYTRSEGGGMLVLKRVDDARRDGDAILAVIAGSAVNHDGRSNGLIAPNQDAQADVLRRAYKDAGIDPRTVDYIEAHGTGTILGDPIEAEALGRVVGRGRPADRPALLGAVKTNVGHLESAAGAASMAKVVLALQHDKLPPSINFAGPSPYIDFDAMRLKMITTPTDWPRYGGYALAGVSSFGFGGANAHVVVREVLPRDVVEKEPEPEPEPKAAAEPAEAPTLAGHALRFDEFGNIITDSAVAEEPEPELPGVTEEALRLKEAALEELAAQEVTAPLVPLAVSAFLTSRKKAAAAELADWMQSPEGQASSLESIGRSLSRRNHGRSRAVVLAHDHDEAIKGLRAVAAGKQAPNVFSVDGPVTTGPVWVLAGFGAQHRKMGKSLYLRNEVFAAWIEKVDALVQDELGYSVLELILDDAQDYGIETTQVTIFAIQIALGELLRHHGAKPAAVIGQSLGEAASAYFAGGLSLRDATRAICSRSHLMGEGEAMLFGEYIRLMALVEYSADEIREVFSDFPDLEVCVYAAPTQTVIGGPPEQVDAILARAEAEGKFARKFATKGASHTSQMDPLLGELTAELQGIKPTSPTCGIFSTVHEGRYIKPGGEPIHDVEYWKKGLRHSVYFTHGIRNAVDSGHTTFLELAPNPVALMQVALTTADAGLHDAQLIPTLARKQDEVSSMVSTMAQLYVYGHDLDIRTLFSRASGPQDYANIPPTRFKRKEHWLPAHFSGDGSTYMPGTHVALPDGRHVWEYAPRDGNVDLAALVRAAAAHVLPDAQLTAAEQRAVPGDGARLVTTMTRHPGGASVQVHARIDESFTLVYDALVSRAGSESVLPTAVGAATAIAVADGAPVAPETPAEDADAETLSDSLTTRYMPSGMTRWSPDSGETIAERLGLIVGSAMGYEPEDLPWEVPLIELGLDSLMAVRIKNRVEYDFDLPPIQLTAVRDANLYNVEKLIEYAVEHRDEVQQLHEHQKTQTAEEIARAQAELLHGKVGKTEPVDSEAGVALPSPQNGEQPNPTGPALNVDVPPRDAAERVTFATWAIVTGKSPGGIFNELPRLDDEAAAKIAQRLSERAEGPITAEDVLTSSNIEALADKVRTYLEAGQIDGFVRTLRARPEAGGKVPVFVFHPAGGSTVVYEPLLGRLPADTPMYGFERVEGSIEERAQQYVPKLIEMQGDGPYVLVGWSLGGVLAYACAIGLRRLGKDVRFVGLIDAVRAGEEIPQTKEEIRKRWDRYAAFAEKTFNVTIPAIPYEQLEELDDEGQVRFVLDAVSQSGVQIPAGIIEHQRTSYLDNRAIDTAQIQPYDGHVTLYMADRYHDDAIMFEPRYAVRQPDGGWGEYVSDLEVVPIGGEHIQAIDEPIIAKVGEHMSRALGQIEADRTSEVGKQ

Data taken from ChEMBL document CHEMBL3988442, “University of Dundee, Small-Polar-MMV Screening Library” (2021).

ClpP1P2: 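Protease assay of ClpP1P2, read by the AMC dye that it sets free. Target: ClpP1P2, Mycobacterium tuberculosis (UniProt P9WPC5 and UniProt P9WPC3). Concentration: 50 µM. Higher reads as stronger inhibition, judged from the few compounds that gave an IC50. Most other retested compounds had strongly negative values. About 69,000 compounds were tested under these conditions; 0.015% (about 10) showed 50% or more at least once.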
TcHisRS: 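Histidine-tRNA ligase, Trypanosoma cruzi CL Brener (UniProt Q4DA54). Enzyme assay of histidyl-tRNA synthetase; the read-out is not stated. Concentration: 30 µM. The record gives no direction; compounds that gave an IC50 in retests scored well above the rest, so higher reads as stronger inhibition. Size under these conditions: about 69,000 compounds, about 31 of them at 50% or above in at least one test.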
PfKRS1: 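Lysine-tRNA ligase, Plasmodium falciparum 3D7 (UniProt Q8IDJ8). Enzyme assay of the cytosolic lysyl-tRNA synthetase in 384-well plates, read by luminescence. Tested at 30 µM. Higher reads as stronger inhibition, judged from the few compounds that gave an IC50. About 69,000 compounds were tested under these conditions; 0.071% (about 49) showed 50% or more at least once.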
CoaBC: 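Coenzyme A biosynthesis protein CoaBC, Mycobacterium tuberculosis (UniProt P9WNZ1). Enzyme assay of CoaBC with a phosphate dye (Biomol Green) read at 650 nm. Compounds at 30 µM. Direction is inferred from only a few compounds that gave an IC50; most scored high, so higher reads as stronger inhibition. Most strong results did not repeat in a second test. Size under these conditions: about 67,000 compounds, about 40 of them at 50% or above in at least one test.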
Leishmania in macrophages: 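Cell assay of Leishmania donovani living inside macrophages; the read-out is not stated. Compounds at 30 µM. Direction is inferred from retests: higher values go with stronger inhibition. Size under these conditions: about 69,000 compounds, about 1,000 of them at 50% or above in at least one test.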
Pks13 thioesterase: 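Polyketide synthase Pks13, Mycobacterium tuberculosis (UniProt I6X8D2). Enzyme assay of the thioesterase domain of polyketide synthase 13; the read-out is not stated. Concentration: 30 µM. The record gives no direction; the compounds picked for IC50 retests had high values, so higher reads as stronger inhibition. Size under these conditions: about 67,000 compounds, about 300 of them at 50% or above in at least one test.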

Values are the deposited “Percent Effect”, in %.
The record does not define 0% and 100%; most values in the screen are far below 50% and negative numbers occur (in some assays of this library far below -100).
This is an unselected part of the compounds tested.
A dash means the value is not listed here; it may have been measured.

structure | ClpP1P2 | TcHisRS | PfKRS1 | CoaBC | Leishmania in macrophages | Pks13 thioesterase
Cc1c[nH]c(CN2CCCCC2CCn2cccn2)c(C)c1=O (stereo not given) | -6.016 | 1.176 | 0.4021 | -0.9828 | 8.856 | -0.6604
Cn1cc(C2CCCN2C(=O)c2ccc(Br)o2)cn1 (stereo not given) | 1.362 | 2.273 | 6.607 | 4.508 | 4.461 | -10.04
CCOCc1ccccc1NC(=O)NC1CCN(C(=O)OCC)CC1 | 3.709 | 0.5618 | 6.041 | -2.213 | 3.399 | -31.76
COC(=O)c1cccc(C(=O)N(CCC#N)CC(C)(C)C)c1 | -8.82 | 3.571 | 4.376 | 0.6289 | 0.4339 | -10.71
O=C(c1csc(-c2ncccn2)n1)N1CCCC1Cn1cccn1 (stereo not given) | -21.3 | 1.734 | -0.4254 | 1.405 | -8.829 | -23.03
O=C(O)C(F)(F)F.[H][C@@]12CCN(c3cccnc3)C[C@]1([H])CN(C(=O)c1ccccc1C)C2 | - | - | - | - | 14.14 | -
CN(C)c1ccc(CNC(=O)Nc2ccc(S(=O)(=O)C(F)F)cc2)cc1 | 8.859 | 5.732 | 2.339 | - | 24.8 | -34.34
O=C(CN1CCN(c2nccs2)CC1)Nc1cccnc1 | -3.505 | 2.326 | 5.944 | 3.728 | 24.84 | 9.671
CC(C)CS(=O)(=O)N1C[C@H]2C[C@H](C(=O)N(C)C)[C@@H](C1)O2 | -13.38 | 3.333 | 2.219 | -0.2439 | - | 8.523
CC(C)CN1CCC2(C1)CN(c1ncccn1)C2.O=C(O)C(F)(F)F | - | - | - | - | 32.57 | -
CCC[C@H]1CN(S(=O)(=O)c2cc(C)ccc2F)C[C@@H]1N | -13.37 | 13.79 | 2.278 | 3.567 | 45.31 | -
O=C(O)C(F)(F)F.[H][C@@]12CCN(CC3CCOCC3)C[C@]1([H])O[C@@H](C(=O)N1CCC(C)CC1)C2 | - | - | - | - | 2.81 | -
Cc1cccc(C(=O)Nc2c(C(N)=O)n[nH]c2C)c1C | -2.775 | 4.972 | 7.962 | -3.185 | 1.013 | -33.05
CCc1c(C)nn2c(O)cc(C3CCN(C(=O)c4ccn(C)n4)C3)nc12 (stereo not given) | -7.014 | 2.825 | -1.292 | -16.71 | -55.83 | 3.507
COCCCNC(=O)Nc1ncc(-c2cccc(OC)c2)n1CCOC | -5.537 | 10.98 | 2.859 | 4.304 | 8.643 | -5.02
CC(=O)N1CCN(C(=O)NCCCN(C)S(C)(=O)=O)CC1 | -13.29 | 4.762 | 0.9976 | -1.033 | -10.19 | -4.052
Cc1cnc(N2CCC3(CC2)CC3CNC(=O)C2CCC2)nc1 (stereo not given) | 3.247 | -18.39 | 1.529 | -1.426 | - | -18.33
CSCC(CCO)NC(=O)Nc1cc(Br)ccc1C (stereo not given) | -9.757 | 0 | 3.373 | 7.036 | 15.82 | -4.004
Cc1cccc(CNC(Cc2ccsc2)c2nc(C)c(C)s2)n1 (stereo not given) | -68.26 | 16.92 | 5.736 | 16.55 | - | 3.462
COCCC(=O)N1CCC2(CC1)CC(c1ccccc1)CN(C1CC1)C2 (stereo not given) | -1.751 | 0 | 15.43 | 5.159 | 16.26 | -0.8907
O=C(NCCCn1ccnc1)C1COCC(=O)N1Cc1ccccc1 (stereo not given) | -1.888 | 3.571 | -1.171 | 0.1229 | -0.93 | -14.42
Cc1nc(-c2noc3ccc(C(=O)NCCN4CCOCC4)cc23)cs1 | -1.379 | 3.922 | 2.131 | 5.041 | 19.16 | -34.67
CN(Cc1ccsc1)C(=O)Nc1ccc(S(=O)(=O)N(C)C)cc1 | 16.1 | 9.774 | 11.37 | 2.314 | 3.959 | -30.23
O=C(Nc1ccc(-c2nc3c([nH]2)CCNC3)cc1)N1CCCC1 | -1.743 | 10.71 | 0.709 | 0.2451 | 15.26 | -23.25
CN1CCN(C2CCN(C(=O)CCC3CCCC3)CC2)CC1.O=C(O)C(=O)O | - | - | - | - | 14.68 | -
Cc1ccc(N2CCC(NCc3cnc(C4CCC4)s3)CC2)nc1 | -5.972 | 3.922 | -6.079 | -2.871 | -1.167 | 26.69
COC[C@@H]1CCC[C@]12CN(Cc1cccc(C)n1)CCO2.O=C(O)C(F)(F)F.O=C(O)C(F)(F)F | - | - | - | - | -20.14 | -
CN(Cc1ccco1)[C@@H]1CN(Cc2cccnc2)C[C@@H]2CCCO[C@@H]21 | 6.335 | 7.438 | 5.633 | 1.681 | - | 6.061